Assay results from paper PMC12627232 (MedComm, 2025).

Tested on: MDA-MB-231 cells
Assay: Immunofluorescence of ac-H3
Assay type: cell-based, human
Details: 1 μM SDFZ-8 treated MDA-MB-231 cells, 24 h
Description: Cells (10^5 cells per plate) were seeded in confocal dishes and incubated with drugs or DMSO (equal volume to experimental groups) for 24 h. The medium was removed, and cells were fixed with 4% polyoxymethylene solution for 30 min. The cells were treated with 0.2% Triton X‐100 for 10 min and 1% BSA for 1 h at room temperature. After that, cells were washed twice with TBST and incubated with anti‐H3 antibody (Cell Signal Technology; #13998) at 4°C overnight. When incubation finished, cells were washed five times with TBST and Cy3‐labeled goat anti‐rabbit IgG (Beyotime; #A0516) and DAPI solution (Solarbio) were added. After 1 h incubation and washing five times with TBST, cells were captured with Leica TCS SP8 super‐resolution laser scanning confocal microscope. The colocalization of ac‐H3 and DAPI was analyzed with ImageJ.

O=C(CCCCCCNC(=O)c1cc(OCCc2ccccc2)c2ccccc2n1)NO [SDFZ-8]
overlap R value of ac-H3 immunofluorescence and DAPI: 0.88
